Test results as given in PMC10783571.

Amino acid sequences for entries named in this document (tags omitted). A change or cut given only in a name is not applied to a line headed by its entry. Residues count along the entry.
UniProt Q96AE7: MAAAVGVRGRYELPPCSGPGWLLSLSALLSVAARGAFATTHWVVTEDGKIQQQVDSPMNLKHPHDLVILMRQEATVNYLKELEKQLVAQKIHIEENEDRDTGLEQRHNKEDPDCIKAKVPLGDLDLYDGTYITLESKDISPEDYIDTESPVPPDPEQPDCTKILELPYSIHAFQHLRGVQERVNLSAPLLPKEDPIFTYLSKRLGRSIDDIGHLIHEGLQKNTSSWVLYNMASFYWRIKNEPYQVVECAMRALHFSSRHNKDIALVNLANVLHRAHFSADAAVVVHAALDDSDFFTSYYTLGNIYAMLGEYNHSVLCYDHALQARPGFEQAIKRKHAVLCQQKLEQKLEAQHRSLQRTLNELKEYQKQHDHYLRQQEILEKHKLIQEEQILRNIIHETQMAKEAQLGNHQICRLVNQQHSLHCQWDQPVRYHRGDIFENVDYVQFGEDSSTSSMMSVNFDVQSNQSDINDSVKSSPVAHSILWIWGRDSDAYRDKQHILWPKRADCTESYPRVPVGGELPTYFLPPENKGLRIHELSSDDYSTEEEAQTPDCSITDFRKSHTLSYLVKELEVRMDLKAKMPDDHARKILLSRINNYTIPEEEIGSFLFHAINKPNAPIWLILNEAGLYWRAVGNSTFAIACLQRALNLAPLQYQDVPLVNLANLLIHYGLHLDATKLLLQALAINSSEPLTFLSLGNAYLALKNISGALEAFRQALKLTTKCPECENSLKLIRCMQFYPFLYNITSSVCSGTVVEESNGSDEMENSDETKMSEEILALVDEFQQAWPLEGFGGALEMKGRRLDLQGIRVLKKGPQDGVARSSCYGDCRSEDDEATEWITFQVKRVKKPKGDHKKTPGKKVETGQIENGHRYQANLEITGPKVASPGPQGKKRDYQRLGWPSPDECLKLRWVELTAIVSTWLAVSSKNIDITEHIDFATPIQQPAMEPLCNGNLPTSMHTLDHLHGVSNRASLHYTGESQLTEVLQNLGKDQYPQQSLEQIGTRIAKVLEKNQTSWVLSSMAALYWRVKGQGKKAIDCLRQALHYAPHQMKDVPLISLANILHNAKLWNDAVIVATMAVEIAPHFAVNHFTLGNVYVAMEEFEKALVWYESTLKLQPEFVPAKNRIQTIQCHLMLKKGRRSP
UniProt Q92545, residues 23-1883: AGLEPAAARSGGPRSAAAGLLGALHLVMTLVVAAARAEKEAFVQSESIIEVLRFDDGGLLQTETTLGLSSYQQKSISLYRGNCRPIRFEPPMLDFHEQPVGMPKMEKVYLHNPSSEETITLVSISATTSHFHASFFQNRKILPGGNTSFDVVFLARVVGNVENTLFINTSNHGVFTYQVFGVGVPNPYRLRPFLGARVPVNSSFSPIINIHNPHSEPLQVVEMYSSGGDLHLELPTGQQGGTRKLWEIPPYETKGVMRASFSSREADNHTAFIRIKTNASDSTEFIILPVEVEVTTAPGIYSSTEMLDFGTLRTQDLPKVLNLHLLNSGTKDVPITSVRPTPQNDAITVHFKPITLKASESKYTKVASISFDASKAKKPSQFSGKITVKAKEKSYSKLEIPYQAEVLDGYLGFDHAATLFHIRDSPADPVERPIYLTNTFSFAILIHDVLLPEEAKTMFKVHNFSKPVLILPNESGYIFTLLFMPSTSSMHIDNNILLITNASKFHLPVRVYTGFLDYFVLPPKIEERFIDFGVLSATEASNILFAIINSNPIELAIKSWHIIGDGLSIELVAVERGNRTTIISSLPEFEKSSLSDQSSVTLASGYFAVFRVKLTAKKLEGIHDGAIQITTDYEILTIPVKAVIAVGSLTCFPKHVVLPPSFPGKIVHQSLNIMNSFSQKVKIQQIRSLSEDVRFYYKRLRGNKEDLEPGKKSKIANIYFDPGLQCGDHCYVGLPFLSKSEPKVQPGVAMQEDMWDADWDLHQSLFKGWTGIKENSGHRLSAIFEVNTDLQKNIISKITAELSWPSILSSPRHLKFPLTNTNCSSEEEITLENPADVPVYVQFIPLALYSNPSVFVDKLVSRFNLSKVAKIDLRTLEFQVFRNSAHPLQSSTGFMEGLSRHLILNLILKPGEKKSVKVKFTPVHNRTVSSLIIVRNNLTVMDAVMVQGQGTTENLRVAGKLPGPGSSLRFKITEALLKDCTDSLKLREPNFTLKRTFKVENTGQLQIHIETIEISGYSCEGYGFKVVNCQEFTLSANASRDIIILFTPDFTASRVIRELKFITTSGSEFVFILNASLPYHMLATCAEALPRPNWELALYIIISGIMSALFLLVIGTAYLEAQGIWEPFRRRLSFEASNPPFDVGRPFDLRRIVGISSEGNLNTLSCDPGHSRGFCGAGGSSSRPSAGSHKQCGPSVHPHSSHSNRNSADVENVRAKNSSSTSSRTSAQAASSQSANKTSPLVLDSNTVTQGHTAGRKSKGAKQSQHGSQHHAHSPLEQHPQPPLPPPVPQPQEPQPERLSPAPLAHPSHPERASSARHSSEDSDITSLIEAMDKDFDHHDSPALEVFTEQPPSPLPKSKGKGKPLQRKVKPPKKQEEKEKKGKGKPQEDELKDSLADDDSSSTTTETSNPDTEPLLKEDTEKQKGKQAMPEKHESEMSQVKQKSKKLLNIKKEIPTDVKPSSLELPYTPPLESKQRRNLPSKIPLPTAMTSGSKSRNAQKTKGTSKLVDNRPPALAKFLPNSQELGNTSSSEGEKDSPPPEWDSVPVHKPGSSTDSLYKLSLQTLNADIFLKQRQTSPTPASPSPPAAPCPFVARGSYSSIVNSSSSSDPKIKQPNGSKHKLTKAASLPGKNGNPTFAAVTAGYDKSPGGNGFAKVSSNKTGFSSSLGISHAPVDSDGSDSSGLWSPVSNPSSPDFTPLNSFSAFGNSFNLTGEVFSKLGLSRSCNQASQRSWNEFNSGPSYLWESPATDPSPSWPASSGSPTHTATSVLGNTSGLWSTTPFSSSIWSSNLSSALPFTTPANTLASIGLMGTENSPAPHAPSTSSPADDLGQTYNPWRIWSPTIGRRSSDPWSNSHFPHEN

Target: TTC17.X1 with a C-terminal 3× FLAG tag (human) (UniProt Q96AE7)
Experiment: affinity purification with mass spectrometry; TTC17 with C-terminal 3xFLAG transfected into TTC17-/- HEK cells, lysed 24 h later in MNT buffer (0.5% Triton X-100, pH 7.5); immunoprecipitated with FLAG-M2 antibody overnight at 4 °C; eluted with 200 mM glycine pH 11; LC-MS/MS; untransfected cells as background control

## transmembrane protein 131 (from UniProt Q92545 23-1883)
  binding: binds

B1: TTC13 (protein, UniProt Q8NBP0 1-860)
chain: MAPAGCCCCCCFWGGAVAAAGAARRVLLLLLLGVLSAGLRPGALATEHYSPLSLLKQELQHRQQQEAPAGGGGCSPQSGDWGDQYSAECGESSFLNFHDSDCEPKGSSPCDSLLSLNTEKILSQAKSIAEQKRFPFATDNDSTNEELAIAYVLIGSGLYDEAIRHFSTMLQEEPDLVSAIYGRGIAYGKKGLHDIKNAELALFELSRVITLEPDRPEVFEQRAEILSPLGRINEAVNDLTKAIQLQPSARLYRHRGTLYFISEDYATAHEDFQQSLELNKNQPIAMLYKGLTFFHRGLLKEAIESFKEALKQKVDFIDAYKSLGQAYRELGNFEAATESFQKALLLNQNHVQTLQLRGMMLYHHGSLQEALKNFKRCLQLEPYNEVCQYMKGLSHVAMGQFYEGIKAQTKVMLNDPLPGQKASPEYLKVKYLREYSRYLHAHLDTPLTEYNIDVDLPGSFKDHWAKNLPFLIEDYEEQPGLQPHIKDVLHQNFESYKPEVQELICVADRLGSLMQYETPGFLPNKRIHRAMGLAALEVMQAVQRTWTNSKVRMNGKTRLMQWRDMFDIAVKWRRIADPDQPVLWLDQMPARSLSRGFNNHINLIRGQVINMRYLEYFEKILHFIKDRILVYHGANNPKGLLEVREALEKVHKVEDLLPIMKQFNTKTKDGFTVNTKVPSLKDQGKEYDGFTITITGDKVGNILFSVETQTTEERTQLYHAEIDALYKDLTAKGKVLILSSEFGEADAVCNLILSLVYYFYNLMPLSRGSSVIAYSVIVGALMASGKEVAGKIPKGKLVDFEAMTAPGSEAFSKVAKSWMNLKSISPSYKTLPSVSETFPTLRSMIEVLNTDSSPRCLKKL
  binding: binds

Results are given in words; binding and its absence hold for the method and conditions named. Binding seen in cells or lysates may run through a third protein. A yes stands for co-enrichment or nearness to the bait. Other partners may have been found.
